Our source for the median seed-adjusted z-score values is PubChem BioAssay AID1347426 (Functional Genomics Laboratory (NCATS/FGL), 2020).

The campaign covered roughly 31,000 sequences. About 1,400 (4.5%) were called active.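 How the source made its calls: active means median seed-adjusted z-score above 1 or below -1; inactive means the rest.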 The list shows a part of the results.

The test in a line: Novel Modifiers of Survival Motor Neuron (SMN) Protein: Gene Identification via Genome-wide siRNA Screen.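 Further: luminescence tracks full-length SMN protein made from the SMN2 reporter.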 To be noted: HEK293T SMN2-luciferase reporter, siRNA knockdown, 72 h; actives lie on both sides. In short, it runs like this: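 Genome-wide siRNA screen (10418 genes, 3 siRNAs each, 1 pmol per well) by reverse transfection in HEK293T cells stably carrying an SMN2-luciferase reporter; luminescence after 72 hours, normalized to negative-control siRNA, log10-transformed, MAD-scored.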
In general terms: A reporter such as luciferase makes a cellular process visible.
As for GCCUACUUCUUGUGCAUCUTT against ZDHHC22, the median seed-adjusted z-score was inactive: 0.00446.

Turning to CCUUGAUUCUGAUUACCAATT against ENDOD1, the median seed-adjusted z-score was inactive: -0.138.

For CUGGAGCUCCCUAAAUAAATT against ETHE1, the median seed-adjusted z-score was inactive: 0.

Consider GCAAAAGGAUGUUUCCUGUTT against TXNDC8, for which the median seed-adjusted z-score was inactive: -0.281.

Regarding GACAUUCCACCGUACCCUATT against RICS, the median seed-adjusted z-score was inactive: 0.665.

Consider CCAAAACAGUGGAGAGAGATT against BIN3, for which the median seed-adjusted z-score is inactive: 0.16.

As to GAAGCUGAUUGAAUACUAUTT against GNPDA1, the median seed-adjusted z-score was inactive: 0.0252.

As to GAAUCUACAUCGUCAGAUATT against UTX, the median seed-adjusted z-score is inactive: 0.157.

Turning to GCACCAUUGCAAGUAACUATT against RFC3, the median seed-adjusted z-score is inactive: 0.733.

For the sequence CCAUUGACCAGAUCCAUAATT against EIF4G1, the median seed-adjusted z-score is inactive: -0.978.

For GGACAUUGUUCUCCCAGAUTT against CYP4F12, the median seed-adjusted z-score was inactive: -0.564.

As for GAGUCUUUAUUGGUAAAGATT against GLRX, the median seed-adjusted z-score was inactive: -0.0561.

As to GAGCUGCAACUGACAUCUUTT against PLTP, the median seed-adjusted z-score was active: 1.09.

With GUAAUGGACUUGUAGAUAUTT against FSTL5, the median seed-adjusted z-score was inactive: -0.881.

For the sequence GGUUCCUUAUUAUAGUCCATT against GPR63, the median seed-adjusted z-score was inactive: -0.0154.

Consider GAGUCAACCCAUACAUUAATT against PLS1, for which the median seed-adjusted z-score is inactive: -0.0715.

For the sequence UCAUCGAACUGAAUACCAATT against STARD3, the median seed-adjusted z-score is inactive: -0.314.

GCAUCGCCCUGAUGAGUAATT against ADCY7: the median seed-adjusted z-score was inactive: -0.0202.

Consider GCUUCGCUGUCGGAUUUCATT against PXN, for which the median seed-adjusted z-score was inactive: -0.69.

As to CCCUGUAAUUUAGCCUUAATT against TXK, the median seed-adjusted z-score is inactive: -0.109.

Regarding AGGGAAUCAUCGUCGUGAATT against DYNLRB1, the median seed-adjusted z-score was inactive: -0.58.

Consider “GGAGAGAAAUGAGUAGCAATT against ST6GALNAC6”, for which the median seed-adjusted z-score is inactive: 0.367.

Regarding CCACCAAAGUUCACCCUGATT against LMNA, the median seed-adjusted z-score was inactive: -0.409.

Regarding GAAUGAAGAAGAUUAAUUUTT against COX17, the median seed-adjusted z-score is inactive: 0.772.

GUCCAAGGAUUUAAAAGAUTT against HSPA4: the median seed-adjusted z-score was inactive: 0.143.

Consider CGACCUUGUUAACAGCUAUTT against FUCA1, for which the median seed-adjusted z-score is inactive: -0.94.

Regarding GGGAGACGAUUGUUCAUCATT against XPA, the median seed-adjusted z-score is active: 2.03.

For the sequence GACUUAUACCUGCGAAUUATT against PEX13, the median seed-adjusted z-score was inactive: 0.

Regarding AGAUAACAGUGUGCUCAUATT against RHD, the median seed-adjusted z-score was inactive: 0.496.

In the case of CAGUGAACCUCUAAUAGAATT against PIP5K1B, the median seed-adjusted z-score was inactive: 0.0917.

Regarding CAUCAAGUAUGGACAUUUATT against CD80, the median seed-adjusted z-score was inactive: 0.553.

As to CACCCUCACUUUGUACGAUTT against MYH13, the median seed-adjusted z-score was inactive: 0.612.

In the case of CAGCGGAUGUUAGGUUUAATT against PEX13, the median seed-adjusted z-score is inactive: 0.

As for GGCUCUUCAUGGACCUUCATT against GPR173, the median seed-adjusted z-score is inactive: -0.147.

For GCAUGUCUAAACUUACUAATT against SSX2IP, the median seed-adjusted z-score is inactive: -0.0799.

With CGUGAUGACUAUCCAUCAATT against RBMX, the median seed-adjusted z-score was inactive: 0.0941.

As to GAGCAUUCCUUCAAAUGGATT against SGK3, the median seed-adjusted z-score was inactive: 0.178.

Turning to GAUCCUUUCUCGUACAGAATT against KCTD12, the median seed-adjusted z-score was inactive: 0.431.

Regarding GCACUAUGCACCUACCCAATT against GPT2, the median seed-adjusted z-score was inactive: 0.0268.

Turning to GCAAUAGUCCCAAAAGCAATT against CD6, the median seed-adjusted z-score is inactive: -0.33.

In the case of GUUGACCUCCGAACAGUUATT against STOML3, the median seed-adjusted z-score is inactive: -0.0711.

Consider CCAUCAAGUUUGAUUUACATT against CCNK, for which the median seed-adjusted z-score is inactive: -0.717.

For the sequence CAGGAAUCUAGGUACCAGATT against FUT5, the median seed-adjusted z-score is inactive: 0.

With GGAAUAGAACAAUUGAAAATT against ZDHHC3, the median seed-adjusted z-score was inactive: 0.229.

GCAUCAUCCGAAUCAAGAATT against CLCN2: the median seed-adjusted z-score was inactive: -0.0786.

On to GAACGGCCUUUACUUGGAATT against KCTD18, for which the median seed-adjusted z-score was inactive: -0.0473.

As to CUAAGACCAGUAUAGUAAATT against ARF6, the median seed-adjusted z-score was inactive: -0.805.

In the case of AGAUCAAGGAGCUUGGAAATT against P2RX6, the median seed-adjusted z-score is inactive: -0.351.

As to GAAGCUCACCAAAAACUAUTT against P2RY6, the median seed-adjusted z-score is inactive: 0.00327.

In the case of GGUUAGCUUAUGUUACAUATT against E2F3, the median seed-adjusted z-score is inactive: -0.215.

GAGUUUUUCGAGCUCAUGATT against PGS1: the median seed-adjusted z-score was active: 1.36.

For the sequence ACCAAAAUCAGGGAAUUUATT against NEDD9, the median seed-adjusted z-score is inactive: 0.

As to GACAGUAUCUGGAAGUUCUTT against TSC22D4, the median seed-adjusted z-score was inactive: -0.508.

CGAGUUACCUGUUAAACUUTT against IGF1: the median seed-adjusted z-score is inactive: 0.559.

GGUGUACGGAGUGAACAUATT against GFPT1: the median seed-adjusted z-score is inactive: 0.416.

For the sequence AGAUAUUUGUUAUCGCUGUTT against CNBP, the median seed-adjusted z-score is active: -1.14.

Regarding GAAGUAACAUUGAGGGCUUTT against CD93, the median seed-adjusted z-score was inactive: -0.0879.

For the sequence AACUCAAUUGGGCAUUUAATT against KCNIP4, the median seed-adjusted z-score is inactive: -0.401.

Regarding CUAGAGCAAUUGAAGGUAATT against HIBCH, the median seed-adjusted z-score is inactive: 0.0655.

For the sequence CGACCUUCCGAGCUGAAAATT against NARS2, the median seed-adjusted z-score was inactive: 0.505.

For GGACCAGAGAACUCGAUUUTT against SERPINA13, the median seed-adjusted z-score was inactive: -0.403.

In the case of GGUGGGUUUUGGAUACUGATT against G6PC, the median seed-adjusted z-score is inactive: -0.628.

For the sequence GCAGAUCCCUUGUUUUCCUTT against APLN, the median seed-adjusted z-score was inactive: 0.0181.

For GAGUCACGGUUGAGAUACATT against SEMA3D, the median seed-adjusted z-score was inactive: -0.0201.

In the case of GCACCUCUCUGCUAACUGUTT against PGC, the median seed-adjusted z-score was inactive: 0.884.

On to GAGAAGCAUCUGAAAGAAATT against DLL1, for which the median seed-adjusted z-score was inactive: 0.

Regarding ACUCAUCUCAGGACACUGATT against RPS6KL1, the median seed-adjusted z-score is inactive: 0.0816.

Consider CAGACUUUGCUAUUCGUUUTT against ABCA6, for which the median seed-adjusted z-score is inactive: 0.113.

In the case of AGCACUAACUAUUUCAAAATT against UBE2D2, the median seed-adjusted z-score was inactive: 0.574.
